Data on one molecule can be found in publication PMC4947181.

The chains behind the UniProt entries cited, without tags or fusion partners.
UniProt Q9R1E0: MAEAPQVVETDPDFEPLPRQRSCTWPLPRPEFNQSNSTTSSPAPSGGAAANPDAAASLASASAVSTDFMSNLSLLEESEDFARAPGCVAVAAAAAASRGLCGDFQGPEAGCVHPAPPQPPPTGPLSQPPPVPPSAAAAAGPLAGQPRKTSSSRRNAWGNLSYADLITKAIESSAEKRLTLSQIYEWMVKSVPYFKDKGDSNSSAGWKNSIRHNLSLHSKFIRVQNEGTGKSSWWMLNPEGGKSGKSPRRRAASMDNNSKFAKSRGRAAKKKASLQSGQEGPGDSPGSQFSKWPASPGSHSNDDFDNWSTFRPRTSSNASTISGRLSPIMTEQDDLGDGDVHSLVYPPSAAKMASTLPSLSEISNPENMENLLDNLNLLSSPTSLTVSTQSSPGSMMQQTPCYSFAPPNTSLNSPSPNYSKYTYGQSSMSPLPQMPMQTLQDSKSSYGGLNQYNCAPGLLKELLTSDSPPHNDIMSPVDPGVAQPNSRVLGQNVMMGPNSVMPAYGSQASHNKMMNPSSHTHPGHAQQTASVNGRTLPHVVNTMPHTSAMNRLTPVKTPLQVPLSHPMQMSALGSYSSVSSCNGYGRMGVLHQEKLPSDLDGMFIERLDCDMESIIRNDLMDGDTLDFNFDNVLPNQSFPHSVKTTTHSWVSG

No constants are given. Whether binding was seen depends on the method and setting. In cells and extracts the contact can be indirect. Some results given as binding are weak or reduced against the parent protein; the word gives no strength. Where a sequence is shown, tags or fusion partners need not be part of it.

The target of this assay is FOXO1-MYC (UniProt Q9R1E0). The assay can be described thus: co-IP; HEK293T cells transfected with tagged expression vectors (for MDM2 with nFOXO1: GFP-CRY1 co-expressed); total cell lysates immunoprecipitated with an anti-MYC antibody, protein A sepharose, 4 °C; western blotting. (In general: Immunoblotting shows a protein as a band on a membrane.)

B1: GFP-CRY1 (protein, UniProt P97784 1-606)
chain: MGVNAVHWFRKGLRLHDNPALKECIQGADTIRCVYILDPWFAGSSNVGINRWRFLLQCLEDLDANLRKLNSRLFVIRGQPADVFPRLFKEWNITKLSIEYDSEPFGKERDAAIKKLATEAGVEVIVRISHTLYDLDKIIELNGGQPPLTYKRFQTLVSKMEPLEMPADTITSDVIGKCMTPLSDDHDEKYGVPSLEELGFDTDGLSSAVWPGGETEALTRLERHLERKAWVANFERPRMNANSLLASPTGLSPYLRFGCLSCRLFYFKLTDLYKKVKKNSSPPLSLYGQLLWREFFYTAATNNPRFDKMEGNPICVQIPWDKNPEALAKWAEGRTGFPWIDAIMTQLRQEGWIHHLARHAVACFLTRGDLWISWEEGMKVFEELLLDADWSINAGSWMWLSCSSFFQQFFHCYCPVGFGRRTDPNGDYIRRYLPVLRGFPAKYIYDPWNAPEGIQKVAKCLIGVNYPKPMVNHAEASRLNIERMKQIYQQLSRYRGLGLLASVPSNSNGNGGLMGYAPGENVPSCSSSGNGGLMGYAPGENVPSCSGGNCSQGSGILHYAHGDSQQTHSLKQGRSSAGTGLSSGKRPSQEEDAQSVGPKVQRQSSN
Regarding B1, the binding result is on record as “binds”.
